Some of the results follow. Small differences around the control level are noise.

By UniProt entry, the sequences of proteins in these tests, tags left out. Where a name states a change or a piece, a line headed by the entry shows the natural chain unless it says otherwise.
UniProt A6NEC2: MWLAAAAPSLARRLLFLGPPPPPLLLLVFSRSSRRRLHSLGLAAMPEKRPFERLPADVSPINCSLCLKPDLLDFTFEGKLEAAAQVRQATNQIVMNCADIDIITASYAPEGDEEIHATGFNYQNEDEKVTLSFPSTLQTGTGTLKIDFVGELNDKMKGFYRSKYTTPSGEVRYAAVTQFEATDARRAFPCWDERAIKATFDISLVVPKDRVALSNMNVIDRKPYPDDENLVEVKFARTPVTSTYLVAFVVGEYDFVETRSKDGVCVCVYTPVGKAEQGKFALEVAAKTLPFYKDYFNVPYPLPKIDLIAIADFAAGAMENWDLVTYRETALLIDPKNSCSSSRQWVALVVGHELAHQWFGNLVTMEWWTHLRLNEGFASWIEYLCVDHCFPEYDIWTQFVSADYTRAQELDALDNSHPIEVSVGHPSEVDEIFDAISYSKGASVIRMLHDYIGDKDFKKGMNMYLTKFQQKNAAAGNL
UniProt A8K0S8: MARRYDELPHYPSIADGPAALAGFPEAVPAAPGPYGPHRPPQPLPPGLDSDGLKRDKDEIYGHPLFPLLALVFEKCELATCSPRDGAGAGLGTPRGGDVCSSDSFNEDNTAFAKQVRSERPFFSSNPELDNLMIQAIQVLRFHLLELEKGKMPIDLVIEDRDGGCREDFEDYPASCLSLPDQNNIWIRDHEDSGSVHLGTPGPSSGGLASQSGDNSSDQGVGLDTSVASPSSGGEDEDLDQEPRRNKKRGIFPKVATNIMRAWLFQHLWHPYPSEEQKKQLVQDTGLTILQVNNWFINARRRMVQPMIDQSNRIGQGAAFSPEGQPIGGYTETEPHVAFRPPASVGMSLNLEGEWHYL
UniProt A6NFY7: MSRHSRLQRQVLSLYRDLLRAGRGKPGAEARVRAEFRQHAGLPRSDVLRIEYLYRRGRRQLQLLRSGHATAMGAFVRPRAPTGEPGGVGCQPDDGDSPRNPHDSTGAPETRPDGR
UniProt A5PLN9: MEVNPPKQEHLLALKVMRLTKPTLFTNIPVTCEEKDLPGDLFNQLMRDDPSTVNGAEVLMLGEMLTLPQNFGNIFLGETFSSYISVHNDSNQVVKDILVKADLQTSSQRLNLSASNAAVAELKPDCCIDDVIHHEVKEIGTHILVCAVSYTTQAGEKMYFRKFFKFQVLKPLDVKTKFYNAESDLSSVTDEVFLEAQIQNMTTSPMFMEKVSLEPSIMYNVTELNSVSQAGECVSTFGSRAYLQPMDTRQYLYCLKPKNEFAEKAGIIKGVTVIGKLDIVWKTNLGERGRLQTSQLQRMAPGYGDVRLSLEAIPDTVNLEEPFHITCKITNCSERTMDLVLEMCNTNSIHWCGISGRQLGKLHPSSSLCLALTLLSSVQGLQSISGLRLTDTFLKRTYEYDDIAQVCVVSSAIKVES
UniProt A2VDJ0: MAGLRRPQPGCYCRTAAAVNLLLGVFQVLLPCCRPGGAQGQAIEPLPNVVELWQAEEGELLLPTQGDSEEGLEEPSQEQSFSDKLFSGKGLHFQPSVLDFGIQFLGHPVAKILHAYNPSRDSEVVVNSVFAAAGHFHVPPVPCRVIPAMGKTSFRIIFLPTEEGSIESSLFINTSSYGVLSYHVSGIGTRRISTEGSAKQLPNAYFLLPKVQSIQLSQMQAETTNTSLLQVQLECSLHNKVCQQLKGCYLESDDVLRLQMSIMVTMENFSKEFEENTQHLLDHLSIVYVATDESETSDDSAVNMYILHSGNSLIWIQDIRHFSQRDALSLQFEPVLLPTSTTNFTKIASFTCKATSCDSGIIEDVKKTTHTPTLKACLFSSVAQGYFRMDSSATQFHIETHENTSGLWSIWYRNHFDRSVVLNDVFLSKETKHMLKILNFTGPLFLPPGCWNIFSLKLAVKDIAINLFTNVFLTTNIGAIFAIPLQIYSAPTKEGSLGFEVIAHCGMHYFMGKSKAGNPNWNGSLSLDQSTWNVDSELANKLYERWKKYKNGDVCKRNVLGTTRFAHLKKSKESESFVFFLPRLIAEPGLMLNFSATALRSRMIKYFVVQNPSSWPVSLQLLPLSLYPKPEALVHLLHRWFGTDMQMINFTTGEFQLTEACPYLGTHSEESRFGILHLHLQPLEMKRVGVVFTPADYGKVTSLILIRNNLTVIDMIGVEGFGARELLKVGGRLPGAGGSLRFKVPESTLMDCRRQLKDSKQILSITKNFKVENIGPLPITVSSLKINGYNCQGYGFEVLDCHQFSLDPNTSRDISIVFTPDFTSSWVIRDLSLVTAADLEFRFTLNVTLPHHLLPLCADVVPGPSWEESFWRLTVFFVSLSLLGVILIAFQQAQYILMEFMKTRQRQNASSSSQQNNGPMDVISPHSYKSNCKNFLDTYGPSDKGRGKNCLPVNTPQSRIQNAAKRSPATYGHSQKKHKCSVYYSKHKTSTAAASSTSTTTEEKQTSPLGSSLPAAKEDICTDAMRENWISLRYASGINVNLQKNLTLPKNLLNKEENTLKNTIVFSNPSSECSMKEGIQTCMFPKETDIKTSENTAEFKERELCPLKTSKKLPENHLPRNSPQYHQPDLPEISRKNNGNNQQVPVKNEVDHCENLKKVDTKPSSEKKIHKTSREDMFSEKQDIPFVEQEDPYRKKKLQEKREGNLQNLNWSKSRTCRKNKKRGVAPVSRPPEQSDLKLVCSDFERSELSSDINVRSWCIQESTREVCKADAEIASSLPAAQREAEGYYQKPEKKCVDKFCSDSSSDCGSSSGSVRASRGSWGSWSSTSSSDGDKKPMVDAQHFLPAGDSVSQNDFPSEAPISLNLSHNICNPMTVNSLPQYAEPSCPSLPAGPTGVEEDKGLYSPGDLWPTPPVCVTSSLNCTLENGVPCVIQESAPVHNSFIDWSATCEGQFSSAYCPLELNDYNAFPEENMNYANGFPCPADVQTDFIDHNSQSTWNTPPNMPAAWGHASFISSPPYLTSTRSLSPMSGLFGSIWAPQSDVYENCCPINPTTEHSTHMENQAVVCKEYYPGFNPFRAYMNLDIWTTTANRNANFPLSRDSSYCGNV
UniProt A4FU28: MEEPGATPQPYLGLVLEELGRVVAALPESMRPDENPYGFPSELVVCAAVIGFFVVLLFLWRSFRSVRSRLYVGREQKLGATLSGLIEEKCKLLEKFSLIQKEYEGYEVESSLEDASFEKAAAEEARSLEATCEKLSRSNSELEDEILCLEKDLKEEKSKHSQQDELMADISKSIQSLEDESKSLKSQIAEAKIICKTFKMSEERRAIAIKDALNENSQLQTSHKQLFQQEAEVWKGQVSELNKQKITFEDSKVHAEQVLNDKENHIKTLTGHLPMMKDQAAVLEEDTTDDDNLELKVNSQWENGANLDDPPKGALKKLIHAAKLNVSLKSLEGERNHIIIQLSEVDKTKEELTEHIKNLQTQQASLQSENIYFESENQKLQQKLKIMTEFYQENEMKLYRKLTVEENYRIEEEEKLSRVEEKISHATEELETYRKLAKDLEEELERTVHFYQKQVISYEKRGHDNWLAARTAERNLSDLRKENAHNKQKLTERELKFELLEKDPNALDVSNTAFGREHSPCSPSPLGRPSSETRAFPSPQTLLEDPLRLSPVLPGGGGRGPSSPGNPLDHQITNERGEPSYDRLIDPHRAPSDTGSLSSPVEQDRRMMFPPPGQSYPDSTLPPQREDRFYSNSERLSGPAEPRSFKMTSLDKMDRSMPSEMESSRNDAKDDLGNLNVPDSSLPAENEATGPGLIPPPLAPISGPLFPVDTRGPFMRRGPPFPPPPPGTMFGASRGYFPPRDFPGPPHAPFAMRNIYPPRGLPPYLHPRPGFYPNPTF
UniProt A6NGB9: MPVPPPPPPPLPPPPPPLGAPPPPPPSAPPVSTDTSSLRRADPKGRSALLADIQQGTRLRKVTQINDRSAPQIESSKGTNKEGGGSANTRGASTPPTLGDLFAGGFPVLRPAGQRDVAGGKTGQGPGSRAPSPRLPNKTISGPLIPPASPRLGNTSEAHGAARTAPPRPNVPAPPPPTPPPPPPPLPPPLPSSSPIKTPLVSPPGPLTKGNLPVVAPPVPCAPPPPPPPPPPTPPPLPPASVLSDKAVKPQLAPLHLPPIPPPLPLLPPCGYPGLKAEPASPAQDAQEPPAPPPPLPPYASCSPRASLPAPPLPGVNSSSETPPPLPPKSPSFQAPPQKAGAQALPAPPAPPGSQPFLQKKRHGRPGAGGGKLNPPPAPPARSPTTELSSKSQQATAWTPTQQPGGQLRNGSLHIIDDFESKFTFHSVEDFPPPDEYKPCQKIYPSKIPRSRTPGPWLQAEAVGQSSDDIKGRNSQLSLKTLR
UniProt A0MZ66, whole entry: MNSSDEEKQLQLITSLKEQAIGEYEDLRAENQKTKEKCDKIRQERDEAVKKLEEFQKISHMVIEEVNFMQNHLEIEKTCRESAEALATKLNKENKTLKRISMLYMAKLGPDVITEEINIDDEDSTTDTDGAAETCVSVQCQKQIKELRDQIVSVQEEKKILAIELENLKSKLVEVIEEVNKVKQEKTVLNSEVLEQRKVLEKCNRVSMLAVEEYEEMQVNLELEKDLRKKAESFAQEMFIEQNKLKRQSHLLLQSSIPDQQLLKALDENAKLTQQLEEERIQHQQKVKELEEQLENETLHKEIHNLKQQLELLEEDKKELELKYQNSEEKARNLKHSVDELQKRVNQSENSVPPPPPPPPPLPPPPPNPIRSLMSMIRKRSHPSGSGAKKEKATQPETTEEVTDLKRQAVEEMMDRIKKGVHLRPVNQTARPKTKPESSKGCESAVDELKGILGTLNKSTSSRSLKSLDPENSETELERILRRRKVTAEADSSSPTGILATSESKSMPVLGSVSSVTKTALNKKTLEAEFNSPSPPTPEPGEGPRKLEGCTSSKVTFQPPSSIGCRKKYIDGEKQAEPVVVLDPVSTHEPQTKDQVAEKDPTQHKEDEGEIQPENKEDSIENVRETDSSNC
UniProt A6ND36: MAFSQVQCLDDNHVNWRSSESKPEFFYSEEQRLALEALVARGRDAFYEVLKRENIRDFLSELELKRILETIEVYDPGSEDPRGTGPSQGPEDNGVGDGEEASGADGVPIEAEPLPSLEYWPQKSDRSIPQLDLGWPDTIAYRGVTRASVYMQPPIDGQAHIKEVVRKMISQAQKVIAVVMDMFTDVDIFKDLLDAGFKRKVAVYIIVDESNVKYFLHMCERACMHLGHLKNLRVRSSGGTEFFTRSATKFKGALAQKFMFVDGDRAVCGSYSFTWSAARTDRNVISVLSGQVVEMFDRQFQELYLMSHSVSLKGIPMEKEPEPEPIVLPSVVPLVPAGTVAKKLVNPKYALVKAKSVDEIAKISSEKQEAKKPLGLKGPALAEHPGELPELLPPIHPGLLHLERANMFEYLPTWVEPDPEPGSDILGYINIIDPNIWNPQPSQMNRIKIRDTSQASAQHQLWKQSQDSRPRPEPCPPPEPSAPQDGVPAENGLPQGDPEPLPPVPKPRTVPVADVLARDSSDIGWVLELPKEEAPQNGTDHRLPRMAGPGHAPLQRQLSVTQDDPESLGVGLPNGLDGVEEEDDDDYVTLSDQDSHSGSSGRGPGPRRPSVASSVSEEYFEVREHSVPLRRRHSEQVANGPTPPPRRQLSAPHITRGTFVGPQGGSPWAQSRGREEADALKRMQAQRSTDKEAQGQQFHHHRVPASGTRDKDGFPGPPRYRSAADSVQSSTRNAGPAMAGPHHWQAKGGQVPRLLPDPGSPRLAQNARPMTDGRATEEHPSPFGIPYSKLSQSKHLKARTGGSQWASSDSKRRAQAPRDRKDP
UniProt A8MPP1: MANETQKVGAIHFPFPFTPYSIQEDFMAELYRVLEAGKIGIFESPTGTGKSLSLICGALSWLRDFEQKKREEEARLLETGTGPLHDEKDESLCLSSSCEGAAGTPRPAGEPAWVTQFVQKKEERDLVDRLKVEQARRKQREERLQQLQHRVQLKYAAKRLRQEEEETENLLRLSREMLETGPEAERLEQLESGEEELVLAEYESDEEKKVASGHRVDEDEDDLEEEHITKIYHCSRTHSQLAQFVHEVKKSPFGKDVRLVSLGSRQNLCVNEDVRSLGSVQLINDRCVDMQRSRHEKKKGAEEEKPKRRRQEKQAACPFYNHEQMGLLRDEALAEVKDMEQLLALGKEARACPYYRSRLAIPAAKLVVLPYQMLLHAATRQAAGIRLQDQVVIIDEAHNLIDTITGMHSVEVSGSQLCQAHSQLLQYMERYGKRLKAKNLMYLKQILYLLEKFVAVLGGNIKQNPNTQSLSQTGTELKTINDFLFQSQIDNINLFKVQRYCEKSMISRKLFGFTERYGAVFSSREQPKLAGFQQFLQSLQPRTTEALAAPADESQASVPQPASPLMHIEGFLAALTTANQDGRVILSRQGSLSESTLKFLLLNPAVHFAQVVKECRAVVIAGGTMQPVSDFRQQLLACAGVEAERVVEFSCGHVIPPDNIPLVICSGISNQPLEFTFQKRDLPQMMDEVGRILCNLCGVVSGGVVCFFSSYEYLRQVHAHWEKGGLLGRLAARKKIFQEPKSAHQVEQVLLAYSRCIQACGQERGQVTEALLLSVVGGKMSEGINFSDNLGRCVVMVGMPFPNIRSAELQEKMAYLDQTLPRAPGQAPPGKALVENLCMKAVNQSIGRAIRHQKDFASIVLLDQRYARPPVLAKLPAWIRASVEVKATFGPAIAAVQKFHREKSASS

Compound in this assay: Cc1nc(Nc2ncc(C(=O)Nc3c(C)cccc3Cl)s2)cc(N2CCN(CCO)CC2)n1 [dasatinib]
Description: log2 fold change of tryptic peptide abundance, ligand vs vehicle (limited proteolysis) (log2 ratio); higher = more trypsin-susceptible (destabilized). The settings on record: ligand concentration: 5 uM; sample: K562 cleared lysate.
Regarding “UniProt A4D1E1 (peptide sequence: ANFYCELCDK, peptide start residue: 134)”, the log2 fold change is -0.0986. As for “WDR91 (peptide sequence: LSPAQGPPQPQSSAKK, peptide start residue: 276) (UniProt A4D1P6)”, the log2 fold change was -0.633. As for “RCCD1 (peptide sequence: TGELYTWGWGK, peptide start residue: 318) (UniProt A6NED2)”, the figure is -0.196; as for “A0A096LP55 (peptide sequence: EQCEQLEKCVKAR, peptide start residue: 35), A0A096LP55”, -0.614; as for “UniProt A6NEC2 (peptide sequence: SKYTTPSGEVR, peptide start residue: 162)”, 0.696.

For the target “UniProt A8K0S8 (peptide sequence: MPIDLVIEDR, peptide start residue: 68)”, the log2 fold change is -0.154. As for “UniProt A6NFY7 (peptide sequence: QVLSLYR, peptide start residue: 10)”, the figure is -0.187; as for “UniProt A5PLN9 (peptide sequence: AYLQPMDTR, peptide start residue: 241)”, 0.253.

Turning to “UniProt A6NC57 (peptide sequence: TITRYSK, peptide start residue: 617)”, the log2 fold change is -0.0224. Then “UniProt A6NGE4 (peptide sequence: FVYEACGAR, peptide start residue: 169)”, with 0.0338. Then “PGP (peptide sequence: GETAVPGAPEALR, peptide start residue: 42) (UniProt A6NDG6)”, with 0.181; and “KIAA0922 (peptide sequence: SWCIQESTR, peptide start residue: 1257) (UniProt A2VDJ0)”, with 0.0854. In the case of “UniProt A4FU28 (peptide sequence: ISHATEELETYR, peptide start residue: 1029)”, the log2 fold change was 0.366. Then “PTPDC1 (peptide sequence: NIFSCCDPK, peptide start residue: 249) (UniProt A2A3K4)”, with 0.559; and “WIPF3 (peptide sequence: NGSLHIIDDFESK, peptide start residue: 410) (UniProt A6NGB9)”, with -0.374. As for “TCAF2 (peptide sequence: VVLAAHECLLCAPK, peptide start residue: 268) (UniProt A6NFQ2)”, the figure is -0.752; as for “UniProt A0MZ66 (peptide sequence: VKELEEQLENETLHK, peptide start residue: 287)”, 0.132; as for “FAM83G (peptide sequence: TGGSQWASSDSK, peptide start residue: 800) (UniProt A6ND36)”, 0.762. Then “DDX11L8 (peptide sequence: QILYLLEK, peptide start residue: 443) (UniProt A8MPP1)”, with -0.426. Regarding “SBNO1 (peptide sequence: RLESLGALTHGDRR, peptide start residue: 1012) (UniProt A3KN83)”, the log2 fold change was -0.933. As for “A0A1B0GUS4 (peptide sequence: FCKNAEEFTKK, peptide start residue: 136), A0A1B0GUS4”, the figure is 0.224.

Consider “A0AUZ9 (peptide sequence: KGLLHCTQKK, peptide start residue: 190)”, for which the log2 fold change was 0.263. As for “UniProt A2RRD8 (peptide sequence: NSVLVIHK, peptide start residue: 285)”, the figure is 0.477.

(Values after the supplement of paper PMC12819154, “High-throughput peptide-centric local stability assay extends protein–ligand identification to membrane proteins, tissues and bacteria” (Nature Structural & Molecular Biology, 2025).)
